Measured values published in the supplement of paper PMC11542785.
Where a name gives a salt, the structure may show the parent alone. The list shows a part of the results. Most values come without repeats; read them as rough.

System: Drosophila melanogaster DPAGT1 (Alg7) RNAi eye model
Assay: eye size Z-score vs DMSO-treated DPAGT1 model flies; higher = larger eye (suppression of DPAGT1 phenotype)
Details: 5 uM

Compound	eye size Z-score	eye size Z-score (female)
CCC1(CC)C(=O)C=CNC1=O [Pyrithyldione]	0.56	–
CC(C)(C)NCC(O)c1cc(Cl)c(N)c(Cl)c1 (configuration not stated) [Clenbuterol hydrochloride]	2.09	–
Fc1ccc(C(OCCN2CCN(CCCc3ccccc3)CC2)c2ccc(F)cc2)cc1	0.51	–
COc1cc([C@@H]2c3cc4c(cc3[C@H](O)[C@H]3COC(=O)[C@H]23)OCO4)cc(OC)c1OC [Podophyllotoxin]	-0.1	–
CCNC1(c2cccs2)CCCCC1=O (configuration not stated) [Tiletamine hydrochloride]	0.01	–
C[C@@H]1CC[C@H]2[C@@H](C)C(=O)O[C@@H]3O[C@@]4(C)CC[C@@H]1[C@]32OO4 [Artemisinin]	0.65	–
CCC1(c2cccc(O)c2)CCCCN(C)C1 (configuration not stated) [Meptazinol hydrochloride]	0.09	–
NCCc1c[nH]c2ccc(O)cc12 [Serotonin hydrochloride]	0.57	–
CCN(C(C)=O)c1cccc(-c2ccnc3c(C#N)cnn23)c1 [Zaleplon]	-0.88	–
CCC(COC(=O)c1cc(OC)c(OC)c(OC)c1)(c1ccccc1)N(C)C (configuration not stated) [Trimebutine]	0.56	–
CC(=O)OCC1=C(C(=O)O)N2C(=O)[C@@H](N)[C@H]2SC1 [Cephalosporanic acid, 7-amino]	-1.21	–
CO[C@]12C[C@@H](COC(=O)c3cncc(Br)c3)CN(C)[C@@H]1Cc1cn(C)c3cccc2c13 [Nicergoline]	-0.23	–
C[N+]12CCC(CC1)C(OC(=O)C(O)(c1ccccc1)c1ccccc1)C2 (configuration not stated) [Clidinium bromide]	-0.1	–
C[C@]12Cc3c[nH]nc3C[C@@H]1CC[C@@H]1[C@@H]2CC[C@@]2(C)[C@H]1CC[C@]2(C)O [Stanozolol]	-0.03	–
C#C[C@]1(O)C=C[C@H]2[C@@H]3CCC4=CC(=O)CC[C@@H]4[C@H]3CC[C@@]21CC [Gestodene]	0.62	–
CC(C)C[C@H](CN)CC(=O)O [Pregabalin]	-0.22	–
CC(C)(C)NCC(O)c1ccccc1Cl (configuration not stated) [Tulobuterol Hydrochloride]	-0.47	–
CC(C)(C)NCC(O)c1ccccc1Cl (configuration not stated) [Tulobuterol hydrochloride]	0.04	–
CC(C)c1c(CN(C)C(C)Cc2ccccc2)n(C)n(-c2ccccc2)c1=O (configuration not stated) [Famprofazone]	-0.19	–
C=C(C)[C@@H]1[C@H]2OC(=O)[C@@H]1[C@]1(O)C[C@H]3O[C@]34C(=O)O[C@H]2[C@]14C [Picrotoxinin]	-0.33	–
NC(=O)CN1CCCC1=O [Piracetam]	0.77	–
CC(=O)OCC(=O)[C@H]1CC[C@H]2[C@@H]3CC[C@H]4C[C@H](O)CC[C@]4(C)[C@H]3C(=O)C[C@]12C [Alfadolone acetate]	-0.28	–
CN1CCN(C(=O)OC2c3nccnc3C(=O)N2c2ccc(Cl)cn2)CC1 (configuration not stated) [Zopiclone]	–	-1.18

Compound	eye size Z-score	eye size Z-score (female)
Clc1ccc(C(OCCN2CCCCC2)c2ccccc2)cc1 (configuration not stated) [Cloperastine hydrochloride]	0	–
O=C(O[C@H]1C[N+]2(CCCOc3ccccc3)CCC1CC2)C(O)(c1cccs1)c1cccs1 [Aclidinium bromide]	0.23	–
CC(Cc1ccccc1)NCCC(c1ccccc1)c1ccccc1 (configuration not stated) [Prenylamine lactate]	0.97	–
C[C@]12CC[C@H](O)C[C@H]1CC[C@@H]1[C@@H]2C[C@@H](O)[C@]2(C)[C@@H](C3=CC(=O)OC3)CC[C@]12O [Digoxigenin]	-0.16	–
NC(=O)C[S+]([O-])C(c1ccccc1)c1ccccc1 (configuration not stated) [Modafinil]	-1.1	–
CN1C(=O)COc2c(C(=O)NC3CN4CCC3CC4)cc(Cl)cc21 (configuration not stated) [Azasetron hydrochloride]	0.74	–
Cc1cccc(C)c1NC1=NCCCS1 [Xylazine]	–	1.11
COc1ccc2c(c1)[C@]13CCCC[C@@H]1[C@H](C2)N(C)CC3 [Dextromethorphan hydrobromide monohydrate]	–	0.8
C=CC[C@]1(O)CC[C@H]2[C@@H]3CCC4=CC(=O)CCC4=C3C=C[C@@]21C [Altrenogest]	0.3	–
CC(Cc1ccc(O)cc1)NCC(O)c1cc(O)cc(O)c1 (configuration not stated) [Fenoterol hydrobromide]	0.07	–
C1CCc2nnnn2CC1 [Pentylenetetrazole]	0.83	–
CC(C)CC(N(C)C)C1(c2ccc(Cl)cc2)CCC1 (configuration not stated) [Sibutramine hydrochloride]	-0.01	–
O=c1[nH]c2ccccc2n1CCCN1CCC(n2c(=O)[nH]c3cc(Cl)ccc32)CC1 [Domperidone]	0.24	–
O=C([O-])c1ccccc1-c1c2cc(Br)c(=O)cc-2oc2[c]([Hg+])c([O-])c(Br)cc12.[Na+].[Na+].[OH-] [Merbromin disodium salt]	0.07	–
CC(C)[N+](C)(CCC(C(N)=O)(c1ccccc1)c1ccccc1)C(C)C [Isopropamide iodide]	0.29	–
C#C[C@]1(O)CC[C@H]2[C@@H]3CCC4=CC(=O)CC[C@]4(C)[C@H]3CC[C@@]21C [Ethisterone]	0.39	–
S=C(NC1CCCCC1)N1CCC(c2cnc[nH]2)CC1 [Thioperamide maleate]	-1.31	–
C=CC[C@]1(O)CC[C@H]2[C@@H]3CCC4=CCCC[C@@H]4[C@H]3CC[C@@]21C [Allylestrenol]	-0.51	–
C=C[C@H]1CN2CC[C@H]1C[C@H]2[C@H](OC(=O)OCC)c1ccnc2ccc(OC)cc12 [Quinine ethyl carbonate]	0.7	–
C[C@]12CC[C@H]3[C@@H](CCC4=CC(=O)CC[C@@H]43)[C@@H]1CC[C@@H]2O [Nandrolone]	1.39	–
C[C@]12C=CC(=O)C=C1CC[C@@H]1[C@@H]2CC[C@@]2(C)[C@H]1CC[C@]2(C)O [Methandrostenolone]	0.67	–
COc1ccc(CN2CCNCC2)c(OC)c1OC [Trimetazidine dihydrochloride]	0.38	–
CC(C)N(CCC(C(N)=O)(c1ccccc1)c1ccccn1)C(C)C (configuration not stated) [Disopyramide]	-0.45	–

Compound	eye size Z-score	eye size Z-score (female)
C[C@H](N)[C@H](O)c1ccc(O)c(O)c1 [Levonordefrin]	0.36	–
O=[N+]([O-])O[C@@H]1CO[C@H]2[C@@H]1OC[C@@H]2O [Isosorbide mononitrate]	0.1	–
CN[C@@H]1C[C@@H](c2ccc(Cl)c(Cl)c2)c2ccccc21 [Indatraline hydrochloride]	0.97	–
CN1[C@@H]2CC[C@H]1C[C@@H](OC(=O)[C@H](CO)c1ccccc1)C2 [(L) Hyoscyamine]	-0.47	–
CCC(=O)O[C@@](Cc1ccccc1)(c1ccccc1)[C@@H](C)CN(C)C [Levopropoxyphene napsylate]	-0.23	–
C[N+](C)(C)CCCCCCCCCC[N+](C)(C)C [Decamethonium bromide]	1.35	–
CN1C[C@H](C(=O)N[C@]2(C)O[C@@]3(O)[C@@H]4CCCN4C(=O)[C@H](Cc4ccccc4)N3C2=O)C[C@@H]2c3cccc4[nH]cc(c34)C[C@H]21 [Dihydroergotamine tartrate]	-0.04	–
C[N+]1(C)[C@@H]2CC[C@H]1C[C@@H](OC(=O)C(CO)c1ccccc1)C2 (some centres not stated) [Methylatropine nitrate]	-0.68	–
COc1cccc(C2(O)CCCCC2CN(C)C)c1 (configuration not stated) [Tramadol hydrochloride]	-0.46	–
CC(CCc1ccccc1)NC(C)C(O)c1ccc(O)cc1 (configuration not stated) [Nylidrin]	0.55	–
CC(=O)OC1CN2CCC1CC2 (configuration not stated) [Aceclidine hydrochloride]	-0.75	–
CCCN1C[C@H](CSC)C[C@@H]2c3cccc4[nH]cc(c34)C[C@H]21 [Pergolide mesylate]	0.14	–
C[C@]12CCC(=O)C=C1CC[C@@H]1[C@@H]2C(=O)C[C@]2(C)C(=O)CC[C@@H]12 [Adrenosterone]	-0.41	–
C[N+]1(C)CCOC(O)(c2ccc(-c3ccc(C4(O)C[N+](C)(C)CCO4)cc3)cc2)C1 (configuration not stated) [Hemicholinium bromide]	0.46	–
Nc1ccncc1 [Dalfampridine]	1.09	–
CC[C@@H](C(N)=O)N1CCCC1=O [Levetiracetam]	0.36	–
COc1ccc(C(=O)N2CCCC2=O)cc1 [Aniracetam]	-0.15	–
CCN[C@@H](C)Cc1cccc(C(F)(F)F)c1 [Dexfenfluramine hydrochloride]	-0.55	–
CC(C)=CC1C(C(=O)OCc2cccc(Oc3ccccc3)c2)C1(C)C (configuration not stated) [Phenothrin]	1.26	–
C[CH2][Hg][S]c1ccccc1C(=O)[O-].[Na+] [Thimerosal]	0.31	–
NC(=O)CN1CC(O)CC1=O (configuration not stated) [Oxiracetam]	-0.49	–

Four entries from above, reformatted.
Compound,eye size Z-score,eye size Z-score (female)
CN1[C@@H]2CC[C@H]1C[C@@H](OC(=O)[C@H](CO)c1ccccc1)C2 [(L) Hyoscyamine],-0.47,–
C[N+]1(C)[C@@H]2CC[C@H]1C[C@@H](OC(=O)C(CO)c1ccccc1)C2 (some centres not stated) [Methylatropine nitrate],-0.68,–
Nc1ccncc1 [Dalfampridine],1.09,–
CCN[C@@H](C)Cc1cccc(C(F)(F)F)c1 [Dexfenfluramine hydrochloride],-0.55,–
